For eleven molecules, odorant receptor activation results are on record in the odorant receptor screen of Mainland et al. (2015).

Several values for one entry are separate records, joined by “and”; a condition that tells them apart may be missing. Equal values may be shown once. Some of the results follow. Each value is one well over the wells without odorant, computed here; the data are noisy.

Test systems include OR5M1 S282T clone 1208; OR5M10 V69L clone 1125; OR5M11 clone 1236; OR5M8 clone 1523; OR5M9 clone 1194; OR5P2 clone 1185; OR5P3 clone 1115; OR5R1 clone 1162; OR5T1 clone 1249; OR5T1 clone 1399.
What all share (assay): odorant receptor activation (CRE luciferase / Renilla) (fold of no-odor wells); higher = more activation
Common to all, as to conditions: 100 µM

`CC/C=C\CCO` [cis-3-hexen-1-ol]: the odorant receptor activation was 1.04 in the assay on OR5M1 S282T clone 1208; 0.923 in the assay with OR5M10 V69L clone 1125; 1.11 in the assay on OR5M11 clone 1236; 0.963 in the assay with OR5M8 clone 1523; 1.07 in the assay with OR5M9 clone 1194; 1.18 in the assay on OR5P2 clone 1185. The odorant receptor activation came out at 1.3 in the assay with OR5P3 clone 1115, 1.04 in the assay on OR5R1 clone 1162, 1.16 in the assay on OR5T1 clone 1249 and 0.205 with OR5T1 clone 1399.

As for `CCCCCCCCCCC=O` [undecanal], the odorant receptor activation stood at 0.728 with OR5M1 S282T clone 1208; 0.826 with OR5M10 V69L clone 1125; 0.89 with OR5M11 clone 1236; 1.03 in the assay with OR5M8 clone 1523; 1.15 in the assay on OR5M9 clone 1194; 1.15 in the assay with OR5P2 clone 1185. The odorant receptor activation was 0.858 with OR5P3 clone 1115, 0.672 with OR5R1 clone 1162, 0.991 in the assay with OR5T1 clone 1249 and 1.19 in the assay on OR5T1 clone 1399.

In the case of `CC(=O)OC(C)(C)C1CC=C(C)CC1` (stereo not drawn) [terpinyl acetate], the odorant receptor activation in the assay with OR5M1 S282T clone 1208 came to 0.857; in the assay with OR5M10 V69L clone 1125 it was 0.836; with OR5M11 clone 1236, 1.03; in the assay with OR5M8 clone 1523, 0.651; with OR5M9 clone 1194, 1.08; in the assay on OR5P2 clone 1185 it was 1.14. In addition, the odorant receptor activation in the assay with OR5P3 clone 1115 was found to be 1.05; with OR5R1 clone 1162, 0.966; in the assay on OR5T1 clone 1249, 1; in the assay on OR5T1 clone 1399, 1.08.

Take `CCCCCCCC=CC=O` [2-decenal]: the odorant receptor activation in the assay with OR5M1 S282T clone 1208 was determined as 0.895; with OR5M10 V69L clone 1125, 1.13; in the assay on OR5M11 clone 1236, 0.963; in the assay with OR5M8 clone 1523, 1.15; in the assay on OR5M9 clone 1194, 0.886; in the assay with OR5P2 clone 1185, 0.914. Besides, the odorant receptor activation with OR5P3 clone 1115 is 5.64; in the assay with OR5R1 clone 1162, 1.17; with OR5T1 clone 1249, 0.643; with OR5T1 clone 1399, 2.64.

For the molecule `C=CCc1ccc(O)c(OC)c1` [eugenol], the odorant receptor activation in the assay with OR5M1 S282T clone 1208 was 1.36 and 1.09; with OR5M10 V69L clone 1125, 1.15; with OR5M11 clone 1236 it was 1.08; in the assay on OR5M8 clone 1523 it was 0.662 and 1.09 and 1; in the assay on OR5M9 clone 1194, 1.46 and 1.25; in the assay on OR5P2 clone 1185 it was 1.75 and 1.5. Moreover, the odorant receptor activation in the assay on OR5P3 clone 1115 was 1.93 and 1.38; with OR5R1 clone 1162, 1.95 and 1.45; in the assay on OR5T1 clone 1249, 0.588 and 1.19; with OR5T1 clone 1399, 1.07 and 0.996.

Consider `c1ccc(Oc2ccccc2)cc1` [diphenyl ether], for which the odorant receptor activation is 0.825 with OR5M1 S282T clone 1208; 1.14 in the assay on OR5M10 V69L clone 1125; 0.847 in the assay on OR5M11 clone 1236; 0.727 with OR5M8 clone 1523; 0.822 in the assay on OR5M9 clone 1194; 1.19 with OR5P2 clone 1185. Moreover, the odorant receptor activation in the assay on OR5P3 clone 1115 turned out to be 0.843; with OR5R1 clone 1162 it was 1.01; in the assay with OR5T1 clone 1249 it was 0.972; in the assay on OR5T1 clone 1399 it was 0.849.

For `CCCCCCC=O` [heptaldehyde], the odorant receptor activation with OR5M10 V69L clone 1125 is 1.46; in the assay on OR5M11 clone 1236, 1.34; in the assay with OR5P3 clone 1115 it was 1.33 and 0.605; with OR5T1 clone 1249, 0.93 and 1.04 and 1.46; in the assay on OR5T1 clone 1399, 0.915 and 0.696.

On to `CC1CCC(C(C)C)C(O)C1` (single isomer, unassigned; (-)) [(-)-menthol], for which the odorant receptor activation in the assay on OR5M1 S282T clone 1208 amounted to 0.869; in the assay with OR5M10 V69L clone 1125, 0.976; in the assay on OR5M11 clone 1236 it was 1.35; in the assay with OR5M8 clone 1523 it was 2.99; in the assay on OR5M9 clone 1194 it was 0.966; with OR5P2 clone 1185 it was 0.943. For the same molecule, the odorant receptor activation with OR5P3 clone 1115 was found to be 13.3; in the assay with OR5R1 clone 1162, 1.1; in the assay on OR5T1 clone 1249 it was 0.972; with OR5T1 clone 1399, 0.624.

For the molecule `CC(=O)c1ccccc1` [acetophenone], the odorant receptor activation with OR5M1 S282T clone 1208 was 0.926; in the assay on OR5M8 clone 1523, 0.593 and 0.803; with OR5M9 clone 1194, 0.782; in the assay with OR5P2 clone 1185, 0.611; in the assay on OR5P3 clone 1115 it was 4.74; in the assay with OR5R1 clone 1162, 1.09. Also, the odorant receptor activation in the assay on OR5T1 clone 1249 stood at 1.1; in the assay on OR5T1 clone 1399, 0.875.

As to `C=CCc1ccc(OC)c(OC)c1` [eugenol methyl ether], the odorant receptor activation in the assay on OR5M1 S282T clone 1208 came out at 1.23; in the assay on OR5M10 V69L clone 1125 it was 1.5; with OR5M11 clone 1236 it was 1.31; with OR5M8 clone 1523, 1.25; in the assay with OR5M9 clone 1194 it was 1.42; with OR5P2 clone 1185, 1.91. In addition, the odorant receptor activation was found to be 2.23 with OR5P3 clone 1115, 1.87 in the assay on OR5R1 clone 1162, 1.52 in the assay with OR5T1 clone 1249 and 1.18 in the assay with OR5T1 clone 1399.

As to `O=C1CCCCCCCCCCCCCCO1` [pentadecalactone], the odorant receptor activation with OR5M1 S282T clone 1208 came out at 0.727; in the assay with OR5M10 V69L clone 1125, 1.11; with OR5M11 clone 1236 it was 0.961; in the assay with OR5M8 clone 1523, 0.971; in the assay with OR5M9 clone 1194 it was 0.706; in the assay on OR5P2 clone 1185, 0.86. For the same molecule, the odorant receptor activation with OR5P3 clone 1115 was 0.765; in the assay on OR5R1 clone 1162, 0.746; with OR5T1 clone 1249, 0.79; in the assay on OR5T1 clone 1399, 1.22.
